The source of these data is article PMC5424428, “Characteristics of L-citrulline transport through blood-brain barrier in the brain capillary endothelial cell line (TR-BBB cells)” (Journal of Biomedical Science, 2017).

In the experiment the test system is TR-BBB cells. The experiment in a line: Inhibition of [14C]L-citrulline uptake in TR-BBB cells by unlabeled amino acids, transporter inhibitors and drugs. The experiment is classed as cell-based, rat. To be noted: for activity at 2000 µM: Rattus norvegicus, 5 min, pH 7.4, read-out: Uptake of [14C]L-citrulline (% of control); for Effect on [14C]L-citrulline uptake: TR-BBB cells, unlabeled compound present. The procedure:
The TR-BBB cells established from transgenic rats harboring the temperature-sensitive simian virus 40 large T-antigen, an in vitro BBB model, were cultured at 33 °C as described previously (21). TR-BBB cells were received from Professor Tetsuya Terasaki (Tohoku University, Japan) and were cultured with Dulbecco’s modified Eagle’s medium (Invitrogen, San Diego, CA), supplemented with 10% fetal bovine serum, 100 U/mL penicillin, 100 μg/mL streptomycin (Invitrogen, San Diego, CA) and 15 μg/L endothelial cell growth factor (Roche, Mannheim, Germany) at 33 °C in a humidified atmosphere of 5% CO2/air. On rat tail collagen type I-coated 24 well culture plates (IWAKI, Tokyo, Japan) initial seeding was carried out at 1 × 10^5 cells/well for the uptake study. After incubation for 2 days at 33 °C, the cultures became confluent and then they were used in the transport study. L-Citrulline free medium was used all experiments except for experiments on saturation kinetics of [^14C]L-citrulline uptake (Fig. 2), Lineweaver-Burk plots for [^14C]L-citrulline uptake (Fig. 4), or inhibitory effect of L-amino acids as a control (Table 2).
The [^14C] L-citrulline uptake study was performed according to the previous report. Briefly, extracellular fluid (ECF) buffer containing [^14C]L-citrulline (44.4 μM) in the presence or absence of unlabeled inhibitors was added to the TR-BBB cells and then incubated at pH 7.4 and 37 °C for the designated time (5 min). Uptake was terminated by the addition of ice-cold ECF buffer. A Na^+ free transport medium was prepared by using LiCl, choline chloride, sodium gluconate and KHCO3 instead of NaCl and NaHCO3, respectively. The cells were then solubilized by incubation overnight in 750 μL of 1 N NaOH at room temperature, and the measurement of radioactivity was performed in a liquid scintillation counter (LS6500; Beckman, Fullerton, CA). Cell to medium ratio (μL/mg protein) was calculated as follows: the radioactivity (dpm/μL) in the sample per milligram cell protein (dpm/mg protein).
To analyze the competitive nature of L-dopa and gabapentin for [^14C]L-citrulline uptake, Lineweaver-Burk plots were generated. The inhibitory constant (K i) was calculated from Eq. (2):2 V=Vmax⋅C/Km⋅1+I/Ki+C where I corresponds to the concentration of L-dopa or gabapentin, respectively.

“Also recorded” adds a separate entry of the source. Where a name gives a salt, the structure may show the parent alone.

Consider `COc1cc2c(cc1OC)C(=O)C(CC1CCN(Cc3ccccc3)CC1)C2` (stereo not shown) [Donepezil, Donepezil hydrochloride], for which the activity at 2000 µM stood at 85.5 ± 5.9% and the “Effect on [14C]L-citrulline uptake” value is reported as “no significant inhibition effect”.

With `Nc1nc2ccc(OC(F)(F)F)cc2s1` [Riluzole, 2-amino-6-trifluoromethoxy benzothiazole], the activity at 2000 µM was found to be 93.9 ± 8.3% and the “Effect on [14C]L-citrulline uptake” value is “no effect; also recorded: no significant effects”.
